Measurements taken from PubChem BioAssay AID504834 (National Center for Advancing Translational Sciences (NCATS), 2011).
Screen size: about 320,000 compounds; about 22,000 (6.9%) were called active. The shares of active, inactive and inconclusive entries below differ from those in the screen. Calls follow the shape of the dose curve; as a rule, active = well fitted inhibition curve with a large enough effect; inconclusive = small, poorly fitted or top-dose-only effect, or another doubt; inactive = no such curve, though single readings can be large or run the other way. Potencies of inconclusive entries are doubtful fits and often do not repeat.
% is scaled to controls: 0 for no effect and ±100 for the full control effect; potency is read from the fitted curve at half-maximal effect.

Assay: Primary qHTS for delayed death inhibitors of the malarial parasite plastid, 96 hour incubation
Settings: P. falciparum luciferase reporter growth; series mostly up to 28.7 µM; activity change, negative = inhibition: at the top concentration
Summary of the method: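 Readout is luminescence from an integrated firefly luciferase in P. falciparum. Red cells, 2% hematocrit and 0.05% parasitemia final, were cultured with compound through two parasite generations (96 hours) at 37 C, 5% CO2.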
In the case of `C/C(=N\NC(=O)c1cccc(S(=O)(=O)Nc2ccccc2Cl)c1)c1ccco1`, the “activity change, negative = inhibition” value is reported as inactive: -11.6%.
For `CN(CCNC(=O)C1CCC(=O)N(Cc2ccc(Cl)cc2)C1)CCc1ccccc1` (stereo not given), the Potency was inconclusive: 18.5 µM [inhibitor, single point].
For `Cc1cccc(C(C)C)c1NC(=O)C(C)OC(=O)Cn1cnc2c1c(=O)n(C)c(=O)n2C` (stereo not given), the “activity change, negative = inhibition” value was inactive: 23%.
With `Cc1cnc(CNC(=O)c2ccc(OC3CCN(C(=O)C4CC4)CC3)cc2)cn1` the Potency was inconclusive: 5.86 µM [inhibitor, partial curve, poor fit].
In the case of `CCOC(=O)c1c(C)c(C(=O)NCc2ccc(OC)cc2)c(C)n1C`, the Potency is reported as inconclusive: 10.4 µM [inhibitor, single point].
For `Brc1ccc(C2=CC(c3ccco3)n3ncnc3N2)cc1` (stereo not given), the Potency was inconclusive: 20.8 µM [inhibitor, partial curve, poor fit].
For `O=C(CCCN1C(=O)C(c2ccccc2)Oc2cccnc21)NCCc1ccc(Cl)cc1` (stereo not given), the Potency was active: 9.28 µM.
In the case of `COCC(=O)Nc1cc(C)cn(Cc2cccc(C(F)(F)F)c2)c1=O`, the Potency is reported as inconclusive: 16.5 µM [inhibitor, single point].
With `Cc1ccc(NCc2ccc(O)c3ncccc23)cc1` the “activity change, negative = inhibition” value was inactive: 15.8%.
In the case of `NNC(=S)Nc1c(F)cc(F)cc1Br`, the Potency is reported as inconclusive: 14.7 µM [inhibitor, single point].
In the case of `CCC1CCCCN1C(=O)CCS(=O)(=O)c1ccccc1` (stereo not given), the “activity change, negative = inhibition” value is reported as inactive: 1.48%.
With `CC(C)(Oc1ccc(Cl)cc1)C(=O)NCc1ccncc1` the “activity change, negative = inhibition” value was inactive: -66.1%.
In the case of `Cc1c(C(=O)N(C)Cc2ccccc2)oc2ccc(S(=O)(=O)N3CCCC3)cc12`, the Potency is reported as inconclusive: 3.7 µM [inhibitor, partial curve, poor fit].
With `Cc1nc2nc(COc3ccccc3)[nH]n2c(=O)c1Cc1ccccc1` the “activity change, negative = inhibition” value was inactive: 29%.
With `Cc1noc(C)c1S(=O)(=O)Nc1ccc(C(=O)Nc2ccc(OC(F)(F)F)cc2)cc1` the Potency was inconclusive: 18.5 µM [inhibitor, single point].
In the case of `CCCCNC(=O)c1ccc2c(OCC)n(CCCC)nc2c1`, the Potency is reported as inconclusive: 1.47 µM [inhibitor, full curve, poor fit].
For `COc1cccc(C(=O)Cn2c(=O)n(CC3CCCO3)c(=O)c3ccccc32)c1` (stereo not given), the Potency was active: 11.7 µM.
For `CCN(CC(=O)NCc1cccs1)C(=O)c1ccc(-c2ccccc2F)o1`, the Potency was inconclusive: 18.5 µM [inhibitor, single point].
In the case of `c1ccc(NCc2ccncc2)cc1`, the Potency is reported as inconclusive: 13.1 µM [inhibitor, partial curve, poor fit].
With `COc1cccc(CCN2CCC(CNS(=O)(=O)c3cc(-c4cc(C)no4)ccc3C)CC2)c1` the Potency was inconclusive: 18.5 µM [inhibitor, single point].
For `CCc1cc2c(=O)[nH]c(Cc3ccccc3)nc2s1`, the Potency was inconclusive: 18.5 µM [inhibitor, single point].
With `CS(=O)(=O)c1nc2ccccc2n1Cc1ccccc1` the “activity change, negative = inhibition” value was inactive: -4.56%.
In the case of `CN(C)c1ccc(-c2nn3c(-c4ccc(Cl)cc4)nnc3s2)cc1`, the Potency is reported as inconclusive: 11.7 µM [inhibitor, single point].
For `c1ccc2c(c1)OCCc1c-2[nH]c2ccccc12`, the Potency was inconclusive: 7.38 µM [inhibitor, partial curve].
For `CC(C)c1onc(C(=O)NC2CCCC2)c1[N+](=O)[O-]`, the Potency was inconclusive: 18.5 µM [inhibitor, partial curve, poor fit].
In the case of `Cc1ccc(CNC(=O)Cn2cc(C(F)(F)F)ccc2=O)cc1`, the Potency is reported as inconclusive: 10.4 µM [inhibitor, single point].
For `O=C(Cn1nnc(-c2ccccc2)n1)N/N=C/c1cc([N+](=O)[O-])c(Cl)cc1Cl`, the “activity change, negative = inhibition” value was inactive: 31.4%.
In the case of `Cc1ccc(-n2cc(CN3CCN(C(=O)c4ncn[nH]4)CC3)c(-c3ccc(F)cc3)n2)cc1`, the Potency is reported as active: 14.7 µM.
With `O=C(Cc1ccsc1)NCC(c1ccco1)N1CCCCC1` (stereo not given) the Potency was inconclusive: 18.5 µM [inhibitor, single point].
For `COc1ccc(NC(=O)CCCNC(=O)Cn2cnc3sc(C)c(C)c3c2=O)cc1Cl`, the Potency was inconclusive: 16.5 µM [inhibitor, single point].
With `O=C(c1ccccc1)c1coc2c1C(=O)c1ccccc1C2=O` the “activity change, negative = inhibition” value was inactive: -16.2%.
For `Nc1cnn(C2CCCO2)c(=O)n1` (stereo not given), the Potency was inconclusive: 11.7 µM [inhibitor, partial curve].
With `O=[N+]([O-])c1ccc(CS(=O)(=O)c2ncn[nH]2)cc1` the “activity change, negative = inhibition” value was inactive: 12.9%.
With `c1ccc(OCc2noc(CN3CC[C@@H]4CCCC[C@H]4C3)n2)cc1` the Potency was active: 13.1 µM.
In the case of `Fc1cccc(/C=N/Nc2nccnc2Cl)c1`, the “activity change, negative = inhibition” value is reported as inactive: 245%.
In the case of `Cc1ccc2nc(-c3ccc(NC(=O)COC(=O)c4ccc([N+](=O)[O-])o4)cc3)sc2c1`, the “activity change, negative = inhibition” value is reported as inactive: 223%.
With `O=C(CN1C(=O)C2CC=CCC2C1=O)OCC(=O)c1ccc(Cl)c([N+](=O)[O-])c1` (stereo not given) the Potency was inconclusive: 10.4 µM [inhibitor, single point].
For `Cc1nnsc1S(=O)c1ccc(Cl)cc1` (stereo not given), the Potency was active: 1.65 µM.
In the case of `COCC1CCN(C(=O)c2ccc(OC3CCN(Cc4ccccn4)CC3)cc2)C1` (stereo not given), the Potency is reported as inconclusive: 18.5 µM [inhibitor, single point].
With `C=CCc1cc(/C=C2/NC(=O)N(CC(=O)OC)C2=O)cc(OC)c1O` the Potency was inconclusive: 9.28 µM [inhibitor, partial curve].
In the case of `Cc1ccc(-c2cccc(NC(=O)C3C(C(=O)O)[C@@H]4C=C[C@H]3C4)c2)o1` (stereo not given in full), the “activity change, negative = inhibition” value is reported as inactive: 6.17%.
With `O=C(NC(=S)Nc1ccccc1N1CCCCC1)c1ccc(F)cc1` the Potency was inconclusive: 2.08 µM [inhibitor, full curve, poor fit].
For `CS(=O)(=O)N1CCC(NC(=O)Nc2ccc(OC(F)(F)F)cc2)CC1`, the Potency was inconclusive: 9.28 µM [inhibitor, partial curve].
With `O=C(Cc1ccccc1)Nc1ccc2[nH]ncc2c1` the Potency was inconclusive: 18.5 µM [inhibitor, single point].
For `COc1ccccc1CN1CCNC(=O)C1CC(=O)N(C)Cc1nc(C)cs1` (stereo not given), the Potency was inconclusive: 13.1 µM [inhibitor, single point].
For `COc1ccccc1NS(=O)(=O)c1cccc(C(=O)NCC(c2ccccc2OC)N2CCCC2)c1` (stereo not given), the Potency was inconclusive: 2.33 µM [inhibitor, full curve].
For `CCOC(=O)CN(c1ccccc1C)S(=O)(=O)c1ccc(Cl)cc1`, the “activity change, negative = inhibition” value was inactive: 25.3%.
For `CCCCN(C(C)=O)C1CC(=O)N(c2ccc(OCCC)cc2)C1=O` (stereo not given), the “activity change, negative = inhibition” value was inactive: 52.1%.
For `CCOC(=O)C(CCCOc1cccc(CC)c1)C(=O)OCC`, the Potency was inconclusive: 10.4 µM [inhibitor, partial curve].
In the case of `COc1ccc(SC[C@H](CC(C)C)N2CCN(CCc3ccccc3)CCC2=O)cc1`, the Potency is reported as inconclusive: 11.7 µM [inhibitor, single point].
For `CCOCCCn1c(SCC(=O)NCc2ccc3c(c2)OCO3)nc2ccccc2c1=O`, the Potency was inconclusive: 18.5 µM [inhibitor, single point].
For `Nc1c(C(=O)NCc2ccco2)nnn1CC(=O)Nc1ccc2c(c1)OCO2`, the Potency was inconclusive: 0.522 µM [inhibitor, partial curve, poor fit].
For `COc1ccc(N=Cc2nc(-c3ccco3)oc2O)cc1`, the “activity change, negative = inhibition” value was inactive: 8.81%.
In the case of `CCN(CC(=O)NCc1cccs1)C(=O)c1ccc(S(=O)(=O)Nc2ccccc2)cc1`, the Potency is reported as inconclusive: 0.0738 µM [inhibitor, full curve, poor fit].
In the case of `Cc1ccc(-n2c(SCC3CNC(=O)O3)nnc2-c2ccccc2)cc1C` (stereo not given), the Potency is reported as inconclusive: 10.4 µM [inhibitor, partial curve, poor fit].
With `NC(=O)c1sc2cc(C(F)(F)F)cnc2c1-c1ccccc1` the Potency was active: 8.28 µM.
In the case of `COCCn1c(SCC(=O)/C=C2\N(C)c3ccccc3C2(C)C)nnc1-c1ccncc1`, the Potency is reported as inconclusive: 10.4 µM [inhibitor, partial curve, poor fit].
With `CCCCCc1cc(O)c2c3c(c(=O)oc2c1)CN(C)CC3` the “activity change, negative = inhibition” value was inactive: -5.82%.
For `CCC(C)(C)NC(=O)C(c1ccc(OC)cc1)N(C(=O)CCC(=O)Nc1cc(C)on1)c1ccccc1F` (stereo not given), the Potency was inconclusive: 9.28 µM [inhibitor, partial curve, poor fit].
For `COc1ccc(C(=O)NC2CC(C)(C)Cc3c2cnn3-c2ccccc2C)o1` (stereo not given), the “activity change, negative = inhibition” value was inactive: 9.64%.
In the case of `CCc1ccc2c(c1)cc(CN(C(=S)Nc1ccc(Cl)cc1)C1CC1)c1nnnn12`, the Potency is reported as inconclusive: 2.33 µM [inhibitor, full curve, poor fit].
For `Cc1ccc(C)c(S(=O)(=O)NCc2ccc(C(=O)N3CCN(C)CC3)cc2)c1`, the Potency was inconclusive: 10.4 µM [inhibitor, partial curve].
In the case of `COc1cc(Br)cc(CN2CCN(C)CC2)c1O`, the “activity change, negative = inhibition” value is reported as inactive: 284%.
With `COc1cc2c(cc1OC)CN(C(=O)c1cc(=O)c3ccccc3o1)CC2` the Potency was inconclusive: 11.7 µM [inhibitor, single point].
With `COc1ccccc1-n1c(-c2ccc(NS(C)(=O)=O)cc2)n[nH]c1=S` the Potency was inconclusive: 0.262 µM [inhibitor, partial curve, poor fit].
In the case of `O=C(c1ccc(-c2ccccc2)cc1)N1CCN(c2ccccc2F)CC1`, the “activity change, negative = inhibition” value is reported as inactive: -19%.
In the case of `CCN(CC(=O)Nc1c(F)cccc1F)C(=O)CN1C(=O)NC2(CCCC2)C1=O`, the “activity change, negative = inhibition” value is reported as inactive: -2.82%.
In the case of `COC(=O)N/N=C/c1cn(CCOc2ccccc2OC)c2ccccc12`, the Potency is reported as inconclusive: 1.65 µM [inhibitor, full curve].
In the case of `CCCn1c(C)cc(C(=O)CSc2nc3ccccc3c(=O)n2Cc2ccco2)c1C`, the Potency is reported as inconclusive: 18.5 µM [inhibitor, single point].
With `O=C(NCc1ccccn1)C(=O)NCC1OCCN1S(=O)(=O)c1ccc(Br)cc1` (stereo not given) the Potency was inconclusive: 14.7 µM [inhibitor, partial curve].
